The target of experiment [1] is T1, Secreted protein acidic and rich in cysteine (SPARC) (rat (endogenous in liver and pancreas)) (UniProt P16975).
T1 sequence: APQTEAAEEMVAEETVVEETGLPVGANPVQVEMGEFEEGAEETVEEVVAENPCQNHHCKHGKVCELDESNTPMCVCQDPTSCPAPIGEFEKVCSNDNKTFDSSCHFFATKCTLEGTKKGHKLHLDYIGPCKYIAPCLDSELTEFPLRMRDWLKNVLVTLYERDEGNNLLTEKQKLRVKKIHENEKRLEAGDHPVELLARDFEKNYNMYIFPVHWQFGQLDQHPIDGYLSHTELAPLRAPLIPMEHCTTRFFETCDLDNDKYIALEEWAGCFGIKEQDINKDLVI
Put plainly: affinity purification with mass spectrometry; co-IP from pooled rat liver tissue lysates with anti-SPARC monoclonal antibody (4°C, 16 h) and protein A/G PLUS agarose beads (4°C, 12 h); 10% SDS-PAGE, silver staining, bands identified by MALDI-TOF peptide mass fingerprinting; rabbit and mouse IgG as controls.

Experiment [2] addresses T1, Secreted protein acidic and rich in cysteine (SPARC) (rat (endogenous in liver and pancreas)). Put plainly: affinity purification with mass spectrometry; co-IP from pooled rat pancreas tissue lysates with anti-SPARC monoclonal antibody (4°C, 16 h) and protein A/G PLUS agarose beads (4°C, 12 h); 10% SDS-PAGE, silver staining, bands identified by MALDI-TOF peptide mass fingerprinting; rabbit and mouse IgG as controls.

These are yes or no findings as the source states them, for the method shown. Binding seen in cells or lysates may run through a third protein. A yes stands for co-enrichment or nearness to the bait. Other partners may have been found.

“Rho GTPase-activating protein 20 (RARhoGAP) (rat (endogenous in liver))”: the binding entry in experiment [1] is reported as “binds”.

On to “Adenomatous polyposis coli protein 2 (APC2) (rat (endogenous in pancreas))”, for which the binding result in experiment [2] is “binds”.

B1: Pancreatic alpha-amylase (PA) (enzyme, UniProt P00689 16-508)
chain: QYDPHTADGRTAIVHLFEWRWADIAKECERYLAPKGFGGVQVSPPNENIIINNPSRPWWERYQPISYKICSRSGNENEFKDMVTRCNNVGVRIYVDAVINHMCGSGNSAGTHSTCGSYFNPNNREFSAVPYSAWYFNDNKCNGEINNYNDANQVRNCRLSGLLDLALDKDYVRTKVADYMNNLIDIGVAGFRLDAAKHMWPGDIKAVLDKLHNLNTKWFSQGSRPFIFQEVIDLGGEAIKGSEYFGNGRVTEFKYGAKLGTVIRKWNGEKMSYLKNWGEGWGFVPTDRALVFVDNHDNQRGHGAGGASILTFWDARMYKMAVGFMLAHPYGFTRVMSSYRRTRNFQNGKDVNDWIGPPNNNGVTKEVTINPDTTCGNDWVCEHRWRQIRNMVAFRNVVNGQPFANWWDNGSNQVAFSRGNRGFIVFNNDDWALSSTLQTGLPAGTYCDVISGDKVNGNCTGLKVNVGSDGKAHFSISNSAEDPFIAIHADSKL
As to B1, the binding entry in experiment [2] is “binds”.

B2: Carbonic anhydrase 3 (CA3) (enzyme, UniProt P14141 1-260)
chain: MAKEWGYASHNGPEHWHELYPIAKGDNQSPIELHTKDIRHDPSLQPWSVSYDPGSAKTILNNGKTCRVVFDDTFDRSMLRGGPLSGPYRLRQFHLHWGSSDDHGSEHTVDGVKYAAELHLVHWNPKYNTFGEALKQPDGIAVVGIFLKIGREKGEFQILLDALDKIKTKGKEAPFNHFDPSCLFPACRDYWTYHGSFTTPPCEECIVWLLLKEPMTVSSDQMAKLRSLFASAENEPPVPLVGNWRPPQPIKGRVVRASFK
In the case of B2, the binding result in experiment [1] is on record as “binds”.

B3: Carbamoyl-phosphate synthase (CPS1) (enzyme, UniProt P07756 39-1500)
chain: LSVKAQTAHIVLEDGTKMKGYSFGHPSSVAGEVVFNTGLGGYSEALTDPAYKGQILTMANPIIGNGGAPDTTARDELGLNKYMESDGIKVAGLLVLNYSHDYNHWLATKSLGQWLQEEKVPAIYGVDTRMLTKIIRDKGTMLGKIEFEGQSVDFVDPNKQNLIAEVSTKDVKVFGKGNPTKVVAVDCGIKNNVIRLLVKRGAEVHLVPWNHDFTQMDYDGLLIAGGPGNPALAQPLIQNVKKILESDRKEPLFGISTGNIITGLAAGAKSYKMSMANRGQNQPVLNITNRQAFITAQNHGYALDNTLPAGWKPLFVNVNDQTNEGIMHESKPFFAVQFHPEVSPGPTDTEYLFDSFFSLIKKGKGTTITSVLPKPALVASRVEVSKVLILGSGGLSIGQAGEFDYSGSQAVKAMKEENVKTVLMNPNIASVQTNEVGLKQADAVYFLPITPQFVTEVIKAERPDGLILGMGGQTALNCGVELFKRGVLKEYGVKVLGTSVESIMATEDRQLFSDKLNEINEKIAPSFAVESMEDALKAADTIGYPVMIRSAYALGGLGSGICPNKETLMDLGTKAFAMTNQILVERSVTGWKEIEYEVVRDADDNCVTVCNMENVDAMGVHTGDSVVVAPAQTLSNAEFQMLRRTSINVVRHLGIVGECNIQFALHPTSMEYCIIEVNARLSRSSALASKATGYPLAFIAAKIALGIPLPEIKNVVSGKTSACFEPSLDYMVTKIPRWDLDRFHGTSSRIGSSMKSVGEVMAIGRTFEESFQKALRMCHPSVDGFTPRLPMNKEWPANLDLRKELSEPSSTRIYAIAKALENNMSLDEIVKLTSIDKWFLYKMRDILNMDKTLKGLNSESVTEETLRQAKEIGFSDKQISKCLGLTEAQTRELRLKKNIHPWVKQIDTLAAEYPSVTNYLYVTYNGQEHDIKFDEHGIMVLGCGPYHIGSSVEFDWCAVSSIRTLRQLGKKTVVVNCNPETVSTDFDECDKLYFEELSLERILDIYHQEACNGCIISVGGQIPNNLAVPLYKNGVKIMGTSPLQIDRAEDRSIFSAVLDELKVAQAPWKAVNTLNEALEFANSVGYPCLLRPSYVLSGSAMNVVFSEDEMKRFLEEATRVSQEHPVVLTKFIEGAREVEMDAVGKEGRVISHAISEHVEDAGVHSGDATLMLPTQTISQGAIEKVKDATRKIAKAFAISGPFNVQFLVKGNDVLVIECNLRASRSFPFVSKTLGVDFIDVATKVMIGESVDEKHLPTLEQPIIPSDYVAIKAPMFSWPRLRDADPILRCEMASTGEVACFGEGIHTAFLKAMLSTGFKIPQKGILIGIQQSFRPRFLGVAEQLHNEGFKLFATEATSDWLNANNVPATPVAWPSQEGQNPSLSSIRKLIRDGSIDLVINLPNNNTKFVHDNYVIRRTAVDSGIALLTNFQVTKLFAEAVQKARTVDSKSLFHYRQYSAGKAA
Regarding B3, the binding entry in experiment [1] is on record as “binds”.

B4: Betaine-homocysteine S-methyltransferase 1 (BHMT) (enzyme, UniProt O09171 1-407)
chain: MAPIAGKKAKRGILERLNAGEVVIGDGGFVFALEKRGYVKAGPWTPEAAVEHPEAVRQLHREFLRAGSNVMQTFTFYASEDKLENRGNYVAEKISGQKVNEAACDIARQVADEGDALVAGGVSQTPSYLSCKSETEVKKIFHQQLEVFMKKNVDFLIAEYFEHVEEAVWAVEALKTSGKPIAATMCIGPEGDLHGVSPGECAVRLVKAGAAIVGVNCHFDPSTSLQTIKLMKEGLEAARLKAYLMSHALAYHTPDCGKQGFIDLPEFPFGLEPRVATRWDIQKYAREAYNLGVRYIGGCCGFEPYHIRAIAEELAPERGFLPPASEKHGSWGSGLDMHTKPWIRARARKEYWQNLRIASGRPYNPSMSKPDAWGVTKGAAELMQQKEATTEQQLRALFEKQKFKSAQ
Take B4: in experiment [1], the binding result is given as “binds”.

Source of the values: paper PMC4481468.
